The chains behind the UniProt entries cited, without tags or fusion partners.
UniProt Q9HBA0, whole entry: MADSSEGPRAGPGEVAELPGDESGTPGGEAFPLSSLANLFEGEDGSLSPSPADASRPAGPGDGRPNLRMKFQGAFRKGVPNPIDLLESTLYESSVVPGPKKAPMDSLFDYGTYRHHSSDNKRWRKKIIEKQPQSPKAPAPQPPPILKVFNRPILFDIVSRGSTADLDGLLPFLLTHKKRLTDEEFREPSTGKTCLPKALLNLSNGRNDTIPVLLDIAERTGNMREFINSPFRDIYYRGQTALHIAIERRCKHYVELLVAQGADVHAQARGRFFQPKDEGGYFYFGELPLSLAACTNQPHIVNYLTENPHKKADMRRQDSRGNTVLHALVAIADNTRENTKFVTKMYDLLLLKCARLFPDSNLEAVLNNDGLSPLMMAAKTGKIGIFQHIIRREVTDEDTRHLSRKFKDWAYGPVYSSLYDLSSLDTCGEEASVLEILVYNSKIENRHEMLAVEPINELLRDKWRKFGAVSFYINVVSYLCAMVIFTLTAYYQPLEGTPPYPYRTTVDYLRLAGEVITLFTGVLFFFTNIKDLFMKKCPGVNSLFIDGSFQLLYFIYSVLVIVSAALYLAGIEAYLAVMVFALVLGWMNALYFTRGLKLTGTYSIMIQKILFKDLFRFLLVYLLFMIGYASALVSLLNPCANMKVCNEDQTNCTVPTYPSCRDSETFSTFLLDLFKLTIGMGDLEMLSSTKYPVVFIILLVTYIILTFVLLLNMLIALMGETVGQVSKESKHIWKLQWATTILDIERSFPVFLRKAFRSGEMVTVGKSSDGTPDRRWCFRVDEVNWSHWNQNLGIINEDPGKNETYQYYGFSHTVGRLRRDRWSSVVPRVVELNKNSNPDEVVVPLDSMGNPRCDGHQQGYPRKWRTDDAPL
UniProt P08684, whole entry: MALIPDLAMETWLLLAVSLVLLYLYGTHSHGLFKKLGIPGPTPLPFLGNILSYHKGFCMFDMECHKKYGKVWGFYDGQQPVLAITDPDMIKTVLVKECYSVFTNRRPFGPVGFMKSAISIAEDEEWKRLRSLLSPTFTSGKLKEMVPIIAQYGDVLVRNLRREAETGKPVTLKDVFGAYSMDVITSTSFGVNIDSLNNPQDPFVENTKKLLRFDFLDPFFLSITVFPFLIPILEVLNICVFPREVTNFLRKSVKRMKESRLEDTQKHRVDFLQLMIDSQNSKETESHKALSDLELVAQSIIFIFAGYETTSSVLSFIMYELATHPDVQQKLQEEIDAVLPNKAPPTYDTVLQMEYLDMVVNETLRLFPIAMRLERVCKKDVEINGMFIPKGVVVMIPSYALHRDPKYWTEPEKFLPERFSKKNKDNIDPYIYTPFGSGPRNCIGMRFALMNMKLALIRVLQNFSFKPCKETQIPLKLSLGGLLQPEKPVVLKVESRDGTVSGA

According to US12391683B2, “Therapeutic compounds and methods” (Actio Biosciences, Inc., priority 2022, dated 2025):

Experiments:
Human TRPV4 = Human TRPV4 (Homo sapiens, UniProt Q9HBA0); assay: TRPV4 calcium flux assay (FLIPR, antagonist mode); conditions: read-out: Human TRPV4 Ca2+ Assay IC50; HEK293T cells transfected with hTRPV4; antagonist mode vs EC80 of TRPV4 agonist; average of at least 3 separate experiments
[1] = target: recombinant human CYP3A4 enzyme (Homo sapiens, UniProt P08684); assay: CYP3A4 incubation assay; type: in vitro ADME; conditions: 100 pmol/mL recombinant human CYP3A4, 37° C., 0-25 min
Experimental: Example 24. CYP3A4 Incubation Assay
Compounds (final concentration […]) were incubated in 100 mM phosphate buffer containing 100 pmol/mL recombinant human CYP3A4 enzyme for 0, 5, 10, 15 and 25 minutes.
Testosterone was used as positive control. Reaction was initiated by the addition of NADPH (final concentration […]) and carried out at 37° C. The reaction was stopped by the addition of 4 volumes of cold acetonitrile (with 100 nM alprazolam, 200 nM labetalol, 200 nM imipramine and 2 μM ketoprofen as internal standards). Samples were centrifuged at 3,220 g for 40 minutes to precipitate protein. 70 μL supernatant was transferred to the analysis plate containing 110 μL of acetonitrile for LC-MS/MS analysis.
The following table indicates the percentage remaining for the indicated examples after incubation with recombinant Human CYP3A4 after 25 minutes under the same conditions as described for Example […].

Hepatocytes [2] = assay: Hepatocytes predicted clearance, mouse; type: in vitro ADME
Hepatocytes [3] = assay: Hepatocytes predicted clearance, dog; type: in vitro ADME
Hepatocytes [4] = assay: Hepatocytes predicted clearance, rat; type: in vitro ADME
Hepatocytes [5] = assay: Hepatocytes predicted clearance, cyno; type: in vitro ADME
Hepatocytes [6] = assay: Hepatocytes predicted clearance, human

| SMILES | IC50 (Human TRPV4) | CYP3A4 Clint [1] | Hepatocytes predicted clearance in mouse (Hepatocytes [2]) | Hepatocytes predicted clearance in dog (Hepatocytes [3]) | Hepatocytes predicted clearance in rat (Hepatocytes [4]) | Hepatocytes predicted clearance in cyno (Hepatocytes [5]) | Hepatocytes predicted clearance in human (Hepatocytes [6]) |
| --- | --- | --- | --- | --- | --- | --- | --- |
| CC(C)(C)c1cnc(N2C[C@@]3(CCC(F)(F)[C@H](Cn4cnc5ccc(C#N)cc54)C3)OC2=O)cn1 | 0.162 µM | – | – | – | – | – | – |
| CC1(Cn2cnc3ccc(C#N)cc32)CC2(CCC1=O)CN(c1cnc(C(C)(C)O)cn1)C(=O)O2 (single isomer, unassigned) | 6.4 µM | 0.14, 0.14 μL/min/pmol CYP450 | 107 mL/min/kg | 41 mL/min/kg | 1.2 mL/min/kg | 22.2 mL/min/kg | 1.2 mL/min/kg |

Structures were worked out from names or drawings and are uncertain.
